Assay results as given in PMC5156884.
Results are given in words; binding and its absence hold for the method and conditions named. For some assays here: Binding seen in cells or lysates may run through a third protein. Some results given as binding are weak or reduced against the parent protein; the word gives no strength. For some assays here: Where a sequence is shown, tags or fusion partners need not be part of it. Each block holds one molecule with its values, some of them ahead of it.

Sequences of proteins named here, by UniProt entry; tags and fusion partners are left off. Residues count along the entry.
UniProt Q99K10, residues 46-843: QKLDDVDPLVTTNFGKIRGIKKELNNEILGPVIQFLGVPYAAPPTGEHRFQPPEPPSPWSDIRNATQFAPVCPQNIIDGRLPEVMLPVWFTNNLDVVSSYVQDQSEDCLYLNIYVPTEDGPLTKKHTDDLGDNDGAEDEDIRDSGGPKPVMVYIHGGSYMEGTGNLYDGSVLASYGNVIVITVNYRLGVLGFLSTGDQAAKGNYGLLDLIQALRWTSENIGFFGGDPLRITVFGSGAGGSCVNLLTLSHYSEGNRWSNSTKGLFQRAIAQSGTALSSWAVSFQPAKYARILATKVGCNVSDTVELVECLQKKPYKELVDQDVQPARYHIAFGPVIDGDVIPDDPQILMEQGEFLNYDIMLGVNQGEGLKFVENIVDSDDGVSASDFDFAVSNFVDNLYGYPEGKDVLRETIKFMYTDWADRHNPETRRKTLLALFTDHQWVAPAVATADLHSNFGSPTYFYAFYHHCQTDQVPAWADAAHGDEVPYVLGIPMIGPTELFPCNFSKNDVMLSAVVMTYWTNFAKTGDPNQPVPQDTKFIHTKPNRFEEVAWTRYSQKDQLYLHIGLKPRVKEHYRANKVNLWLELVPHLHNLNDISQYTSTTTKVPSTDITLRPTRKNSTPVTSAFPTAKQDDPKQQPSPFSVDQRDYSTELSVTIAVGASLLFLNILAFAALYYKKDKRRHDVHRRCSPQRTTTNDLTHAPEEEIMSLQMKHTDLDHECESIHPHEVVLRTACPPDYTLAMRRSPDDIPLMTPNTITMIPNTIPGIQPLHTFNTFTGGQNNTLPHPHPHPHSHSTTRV

Legend:
[1] = molecular target: neuroligin-1 (pCAG-HA-Nlgn1) (UniProt Q99K10); assay: cell adhesion (cell aggregation) assay; two populations of transfected HEK293 cells (EGFP or DsRed) mixed 1:1 in suspension with 10 mM CaCl2 and 10 mM MgCl2, RT, 90 min; aggregation index from images
Lphn1-GFP = molecular target: T1, Lphn1-GFP (UniProt O88917); assay: co-IP; HEK293 cotransfected with a GFP-tagged and an HA-tagged construct; GFP-Trap-A agarose beads, 1.8-2.2 mg total protein; Western blot with anti-HA and anti-GFP
T1 sequence: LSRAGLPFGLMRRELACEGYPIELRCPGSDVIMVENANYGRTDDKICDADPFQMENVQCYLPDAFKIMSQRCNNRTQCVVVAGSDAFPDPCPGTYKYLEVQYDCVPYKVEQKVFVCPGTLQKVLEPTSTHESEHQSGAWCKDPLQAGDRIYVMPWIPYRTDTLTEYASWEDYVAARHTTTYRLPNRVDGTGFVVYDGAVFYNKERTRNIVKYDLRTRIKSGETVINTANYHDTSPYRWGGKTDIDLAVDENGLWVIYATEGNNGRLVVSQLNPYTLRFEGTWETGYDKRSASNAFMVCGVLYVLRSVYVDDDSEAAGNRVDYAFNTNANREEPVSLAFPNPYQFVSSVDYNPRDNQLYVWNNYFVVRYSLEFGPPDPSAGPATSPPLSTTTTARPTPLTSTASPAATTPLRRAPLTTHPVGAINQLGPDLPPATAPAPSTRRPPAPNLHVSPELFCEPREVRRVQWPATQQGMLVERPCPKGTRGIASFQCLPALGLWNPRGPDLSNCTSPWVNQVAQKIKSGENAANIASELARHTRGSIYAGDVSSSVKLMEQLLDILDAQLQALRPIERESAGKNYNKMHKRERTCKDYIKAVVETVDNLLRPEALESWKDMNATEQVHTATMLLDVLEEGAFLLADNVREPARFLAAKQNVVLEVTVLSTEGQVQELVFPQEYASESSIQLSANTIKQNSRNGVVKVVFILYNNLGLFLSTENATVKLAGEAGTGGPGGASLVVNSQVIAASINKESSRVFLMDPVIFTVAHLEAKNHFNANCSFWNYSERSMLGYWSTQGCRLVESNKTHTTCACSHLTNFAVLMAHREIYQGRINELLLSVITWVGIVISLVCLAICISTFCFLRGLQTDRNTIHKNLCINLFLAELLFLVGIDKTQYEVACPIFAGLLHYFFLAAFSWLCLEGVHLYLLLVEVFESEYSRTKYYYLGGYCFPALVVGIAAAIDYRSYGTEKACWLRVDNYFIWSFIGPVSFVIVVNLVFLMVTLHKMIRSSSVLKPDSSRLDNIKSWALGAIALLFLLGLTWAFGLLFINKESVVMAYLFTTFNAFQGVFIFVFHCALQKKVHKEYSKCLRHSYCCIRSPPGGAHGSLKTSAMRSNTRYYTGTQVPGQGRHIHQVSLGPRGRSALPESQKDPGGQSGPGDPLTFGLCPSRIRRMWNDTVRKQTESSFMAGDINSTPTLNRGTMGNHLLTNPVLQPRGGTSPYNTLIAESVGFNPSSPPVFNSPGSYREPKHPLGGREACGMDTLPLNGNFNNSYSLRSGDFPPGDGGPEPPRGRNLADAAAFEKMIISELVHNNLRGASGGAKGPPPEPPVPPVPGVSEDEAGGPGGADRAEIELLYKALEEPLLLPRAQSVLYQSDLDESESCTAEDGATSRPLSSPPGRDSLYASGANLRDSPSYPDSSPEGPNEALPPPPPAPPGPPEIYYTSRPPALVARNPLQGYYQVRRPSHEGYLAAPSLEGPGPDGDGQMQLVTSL

binding [1]: binds
Molecule: neuroligin-1 (pCAG-HA-Nlgn1) (from UniProt Q99K10 46-843)

binding (Lphn1-GFP): binds
B1: HA-Cntn6 (protein, UniProt P97528 20-999)
chain: ESRFTRPIFIQEPQDVIFPLDLSRSEIILSCTASGYPSPHYRWKQNGTDIDFSMTYHYRLDGGSLAISSPRTDQDIGIYQCLATNPVGTILSRKAKLQFAYIEDFETKSRSTVSVREGQGVVLLCGPPPHFGELSYDWTFNDNPLYVQEDKRRFVSQNTGNLYIAKVEPSDVGNYTCFVTNKEAHRSVQGPPTPLVQRTDGVMGEYEPKIEVRFPETIQAAKDSSVKLECFALGNPVPDISWRRLDGSPMPGKVKYSNSQATLEIPKFQQEDEGFYECVAGNLRGRNLAKGQLIFYAPPEWEQKIQNTYLSIYDSLFWECKASGNPNPSYTWLKNGERLNTEERIQTENGTLIITMLNVSDSGIYQCAAENKYQTIYANAELRVLASAPDFSKNPIKKISVVQVGGDISIECKPNAFPKASISWKRGTENLKQSKRVFFLEDGSLKICNVTRSDAGSYTCVATNQFGNGKSSGSLIVKERTVITVPPSKMDVTVGESIVLPCQVSHDPTMEVLFVWYFNGDVIDLKKGVAHFERIGGESVGDLMIRNIQLGHSGKYLCTVQTTLERLSAVADIIVRGPPGPPEDVKVEHISSTTSQLSWRPGPDNNSPIQIFTIQTRTPFSVGWQAVATVPEILNGQTYNATVIGLSPWVEYEFRVVAGNNIGIGEPSKPSELLRTKASIPNVAPVNINGGGGSRSELVITWEPIPEELQNGEGFGYIIMFRPVGSTTWMKEKVALVESSKFIYRNESIMPLSPFEVKVGVYNNEGEGSLSTVSIVYSGEDEPRLAPRGTSVQSFSASDMEVSWNAIAWNRNTGRVLGYEVLYWTDNSKESMIGKIRVSGNVTTKNITGLRANTIYFASVRAYNTAGTGPSSPPVNVTTKKSPPSQPPANIAWKLSNSKLCLNWEHVKTMENESEVLGYKILYRQNRQSKTHVLETNNTSAELLVPFEEDYLIEIRTVSDGGDGSSSEEIRIPKMSSLSS
